From PMC10609836
These are yes or no findings as the source states them, for the method shown. In cells and extracts the contact can be indirect. Some binding calls cover weakened binding; strength is not graded here.

Sequences of proteins named here, by UniProt entry; tags and fusion partners are left off.
UniProt P17383: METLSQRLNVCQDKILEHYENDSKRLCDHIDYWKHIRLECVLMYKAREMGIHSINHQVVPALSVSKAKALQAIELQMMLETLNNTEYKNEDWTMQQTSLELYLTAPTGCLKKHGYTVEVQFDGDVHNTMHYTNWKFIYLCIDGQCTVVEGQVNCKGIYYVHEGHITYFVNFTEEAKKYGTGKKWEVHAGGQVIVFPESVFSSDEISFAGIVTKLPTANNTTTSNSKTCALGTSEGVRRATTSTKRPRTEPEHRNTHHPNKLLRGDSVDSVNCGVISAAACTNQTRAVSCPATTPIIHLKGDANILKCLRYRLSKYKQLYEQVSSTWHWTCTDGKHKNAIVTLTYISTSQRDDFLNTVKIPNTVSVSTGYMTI
UniProt Q14289: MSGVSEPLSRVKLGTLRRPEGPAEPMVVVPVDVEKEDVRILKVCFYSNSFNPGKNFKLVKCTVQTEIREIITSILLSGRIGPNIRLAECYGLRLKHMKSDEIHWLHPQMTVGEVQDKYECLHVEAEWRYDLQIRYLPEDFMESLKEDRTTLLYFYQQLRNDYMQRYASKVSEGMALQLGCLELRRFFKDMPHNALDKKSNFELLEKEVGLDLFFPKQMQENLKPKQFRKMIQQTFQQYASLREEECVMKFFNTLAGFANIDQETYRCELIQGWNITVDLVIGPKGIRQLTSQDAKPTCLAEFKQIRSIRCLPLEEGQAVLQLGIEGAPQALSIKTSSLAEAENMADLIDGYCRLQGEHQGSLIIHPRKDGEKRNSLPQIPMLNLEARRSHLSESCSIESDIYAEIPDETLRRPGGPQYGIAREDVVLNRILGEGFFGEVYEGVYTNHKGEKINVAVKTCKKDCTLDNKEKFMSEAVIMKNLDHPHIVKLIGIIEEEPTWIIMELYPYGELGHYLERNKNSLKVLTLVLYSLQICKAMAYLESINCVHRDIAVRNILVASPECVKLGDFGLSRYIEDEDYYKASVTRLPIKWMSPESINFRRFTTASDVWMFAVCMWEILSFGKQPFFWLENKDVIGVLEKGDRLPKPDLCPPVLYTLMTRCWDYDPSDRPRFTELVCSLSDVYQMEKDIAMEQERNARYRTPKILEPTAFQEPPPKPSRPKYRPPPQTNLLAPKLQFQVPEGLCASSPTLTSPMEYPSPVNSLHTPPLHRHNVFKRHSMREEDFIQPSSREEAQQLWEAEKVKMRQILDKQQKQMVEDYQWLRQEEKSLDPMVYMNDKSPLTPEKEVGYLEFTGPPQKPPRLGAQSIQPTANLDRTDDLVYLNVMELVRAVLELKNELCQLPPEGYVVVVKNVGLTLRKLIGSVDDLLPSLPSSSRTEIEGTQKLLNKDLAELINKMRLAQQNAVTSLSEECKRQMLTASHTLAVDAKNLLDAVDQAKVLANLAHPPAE
UniProt Q00944: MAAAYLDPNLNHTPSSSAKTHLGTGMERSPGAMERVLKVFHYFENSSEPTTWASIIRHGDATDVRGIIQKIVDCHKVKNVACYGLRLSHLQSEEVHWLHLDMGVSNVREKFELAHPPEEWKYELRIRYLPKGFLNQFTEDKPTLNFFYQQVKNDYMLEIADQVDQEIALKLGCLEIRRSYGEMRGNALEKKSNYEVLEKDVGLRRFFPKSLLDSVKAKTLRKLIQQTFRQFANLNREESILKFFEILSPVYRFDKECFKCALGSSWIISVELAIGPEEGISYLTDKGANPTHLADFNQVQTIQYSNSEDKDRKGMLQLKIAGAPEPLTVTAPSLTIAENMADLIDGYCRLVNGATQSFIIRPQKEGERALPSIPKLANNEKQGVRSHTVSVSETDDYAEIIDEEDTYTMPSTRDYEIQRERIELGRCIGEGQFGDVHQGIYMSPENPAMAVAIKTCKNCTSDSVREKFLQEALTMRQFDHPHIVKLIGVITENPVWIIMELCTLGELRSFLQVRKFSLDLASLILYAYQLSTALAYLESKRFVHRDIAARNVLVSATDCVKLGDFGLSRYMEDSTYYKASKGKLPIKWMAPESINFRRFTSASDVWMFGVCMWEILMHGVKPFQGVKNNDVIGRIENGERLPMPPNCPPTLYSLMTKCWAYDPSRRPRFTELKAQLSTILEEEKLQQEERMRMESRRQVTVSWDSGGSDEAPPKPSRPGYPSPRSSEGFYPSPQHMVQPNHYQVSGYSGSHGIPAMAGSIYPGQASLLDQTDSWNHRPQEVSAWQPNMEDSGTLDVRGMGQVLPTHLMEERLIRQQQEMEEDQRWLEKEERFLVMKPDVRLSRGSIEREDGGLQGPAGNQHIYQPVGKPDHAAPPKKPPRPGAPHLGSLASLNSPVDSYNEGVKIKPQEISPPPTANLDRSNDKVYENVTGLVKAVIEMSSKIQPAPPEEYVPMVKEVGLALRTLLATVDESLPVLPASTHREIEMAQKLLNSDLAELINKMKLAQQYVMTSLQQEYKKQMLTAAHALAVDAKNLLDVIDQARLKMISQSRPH

Target: FLAG-tagged HPV-31 E2 (HPV-31) (UniProt P17383)
Assay: co-IP; HEK293TT cells co-transfected with FLAG-E2 and GFP-kinase constructs; FLAG-E2 immunoprecipitated with FLAG (M2) antibodies; complexes blotted with FLAG and GFP antibodies

Substance	binding
GFP-Pyk2 (wild type) (from UniProt Q14289 1-1009) (enzyme)	binds
GFP-tagged focal adhesion kinase (FAK) (from UniProt Q00944 1-1053) (enzyme)	binds
